Source: PMC7381744
No constants are given. Whether binding was seen depends on the method and setting. For part of these data: In cells and extracts the contact can be indirect. Some binding calls cover weakened binding; strength is not graded here. For part of these data: Where a sequence is shown, tags or fusion partners need not be part of it. One block for each substance: values may come before it.

Columns and labels:
[1] = biological target: T1, Myc-NONO (human) (UniProt Q15233); assay: co-IP; HEK293T cells transfected with Flag-STAT3 and Myc-NONO alone or in combination; lysate immunoprecipitated with Myc antibody, western blot with Myc and Flag antibodies; lysis buffer 50 mM Tris pH 7.4, 150 mM NaCl, 1% Triton X100, 1 mM EDTA
T1 sequence: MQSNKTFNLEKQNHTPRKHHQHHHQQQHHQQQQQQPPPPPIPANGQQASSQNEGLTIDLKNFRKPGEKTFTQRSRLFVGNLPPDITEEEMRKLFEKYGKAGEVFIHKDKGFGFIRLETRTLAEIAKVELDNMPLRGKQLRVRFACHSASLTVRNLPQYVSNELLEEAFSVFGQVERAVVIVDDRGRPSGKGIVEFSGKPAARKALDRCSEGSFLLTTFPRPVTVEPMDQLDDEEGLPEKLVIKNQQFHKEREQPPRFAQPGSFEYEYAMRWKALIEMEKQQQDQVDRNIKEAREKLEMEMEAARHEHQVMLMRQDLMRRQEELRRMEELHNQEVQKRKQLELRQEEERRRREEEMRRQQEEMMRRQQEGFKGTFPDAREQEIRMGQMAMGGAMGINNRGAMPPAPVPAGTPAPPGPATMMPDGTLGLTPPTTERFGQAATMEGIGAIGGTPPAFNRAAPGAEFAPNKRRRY

[2] = biological target: T2, RFP-NONO (human) (UniProt Q15233); assay: fluorescence cross-correlation spectroscopy (FCCS); live cells co-expressing GFP-STAT3 and RFP-NONO; strength given as relative cross-correlation amplitude, compared with GFP and RFP-NONO
T2 sequence: T1 sequence

[3] = biological target: T3, NONO (endogenous, MDA-MB-231) (human (endogenous in MDA-MB-231)) (UniProt Q15233); assay: co-IP; MDA-MB-231 cell lysates immunoprecipitated with IgG, NONO or STAT3 antibodies; western blot with STAT3 and NONO antibodies; lysis buffer 50 mM Tris pH 7.4, 150 mM NaCl, 1% Triton X100, 1 mM EDTA
T3 sequence: T1 sequence

- binding [1]: binds
Substance: Flag-STAT3 (from UniProt P40763-1 1-770)

- binding [2]: binds
Substance: GFP-STAT3 (from UniProt P40763-1 1-770)

- binding [3]: binds
Substance: STAT3 (endogenous, MDA-MB-231) (from UniProt P40763-1 1-770)
